From ChEMBL document CHEMBL3988442, “University of Dundee, Small-Polar-MMV Screening Library” (2021).

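Whole-parasite assay of Trypanosoma brucei over 72 hours; the read-out is not stated. Compounds at 30 µM. Higher reads as stronger inhibition (inferred: compounds with an IC50 in retests scored well above the rest). Values scatter widely below zero; nearly all retest evidence comes from the higher of the two concentrations used. About 64,000 compounds were tested under these conditions; 1.5% (about 940) showed 50% or more at least once.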

Values are the deposited “Percent Effect”, in %. The record does not define 0% and 100%; most values in the screen are far below 50% and negative numbers occur (in some assays of this library far below -100). This is an unselected part of the compounds tested.

| structure | percent effect |
|---|---|
| `Cc1cnn(CCNCc2csc(-c3ccc(C(N)=O)cc3)n2)c1` | 12.99 |
| `O=C(O)C(F)(F)F.[H][C@@]12CCN(C(=O)c3cccn3C)C[C@]1([H])[C@@H](CN(C)C)OC2` | 10.92 |
| `[H][C@]12CN(Cc3cccc(F)c3)CC[C@@]1(O)CCN(S(=O)(=O)N(C)C)C2` | 5.447 |
| `O=C(Cc1ccc(Br)s1)NCC(=O)Nc1cn[nH]c1` | -32.23 |
| `Cn1cc(C(=O)Nc2cccc(Oc3ccncc3)c2)ccc1=O` | -36.82 |
| `COc1ccccc1C1(CNc2nnc(C)c(C)c2C#N)CCOCC1` | -20.73 |
| `Cc1c(C(=O)N2CCCC(n3cccn3)C2)nnn1-c1ccccc1` (stereo not shown) | -3.586 |
| `Cc1ccc(C)c2c(C)c(C(=O)NCCCn3ccnn3)[nH]c12` | -11.67 |
| `[H][C@@]12CCN(C)[C@]1([H])CN(C(=O)c1ccc3sc4c(c3c1)CCNC4=O)C2` | -4.346 |
| `[H][C@]12CCN(C(N)=O)[C@@]1([H])CC[C@@H](COCC(=O)N1CCCC1)O2` | -19 |
| `O=C(O)c1ccccc1C1CCN(C2CCN(c3ccccc3)CC2)C1` (stereo not shown) | -16.4 |
| `[H][C@@]12CS(=O)(=O)C[C@]1([H])N(C(=O)c1ccc3nc(C)oc3c1)CCN2CCO` | -43.9 |
| `Cc1cccc(N2CCN(C(=O)NC(C)c3nncn3C)CC2)c1C` (stereo not shown) | 1.594 |
| `CN(Cc1cccc(-n2cccn2)c1)Cc1cccs1` | -14.8 |
| `O=C1C(Sc2nc(=O)ccn2C2CC2)CCN1c1ccccc1F` (stereo not shown) | -31.69 |
| `COCc1nc(C(=O)NS(=O)(=O)c2ccc(Cl)cc2F)cs1` | 3.354 |
| `COc1cc(C)c(CNC(C)c2csc(C3CC3)n2)cc1OC` (stereo not shown) | -51.32 |
| `O=S(=O)(NCCCN1CC=CC1)c1cncc(Cl)c1` | -16.15 |
| `Cc1ccc(CN(C)C(=O)c2n[nH]c(N)c2-c2ccccc2)o1` | -31.28 |
| `CCCNC(=O)NC(=O)CNc1c(F)cccc1N1CCCC1` | -21.03 |
| `COc1ccc(Cl)cc1NC(=O)CN1CCc2nc(NC(C)=O)sc2C1` | -27.3 |
| `CCCC(NC(=O)c1cscc1C)c1nnn[nH]1` (stereo not shown) | 12.15 |
| `Cc1nn(-c2ccccc2)c(C)c1CC(=O)NC1CC(=O)N(C)C1` (stereo not shown) | -14.36 |
| `CS(=O)(=O)NCC1CCCCN1C(=O)c1cccc(C(F)(F)F)c1` (stereo not shown) | 6.826 |
| `COc1ccc(-n2nnc(C(=O)NC(C)C)c2C2CC2)cc1` | -28.22 |
| `Cc1ccc(C(=O)N(C)Cc2nccn2CC(F)(F)F)cn1` | 12.26 |
| `CC(Oc1ccc(F)cc1F)C(=O)N1CCC2(CC1)CC(=O)N(C)C2` (stereo not shown) | -42.55 |
| `Cc1cc(C)n(CC2CCCN2CCCS(=O)(=O)N(C)C)n1` (stereo not shown) | 12.99 |
| `COc1ccc(C(C)n2ccnc2-c2cc3n(n2)CCCNC3)cc1F` (stereo not shown) | -13.86 |
| `c1cnc(N2CCC(c3csc(Nc4cnccn4)n3)CC2)nc1` | 69.17 |
| `CN1CCN(CCc2ncnn2-c2ccc3c(c2)OCO3)CC1` | -13.86 |
| `Cc1nccnc1CN1CCC2(CCCN(C3CCOCC3)C2=O)C1` (stereo not shown) | 11.29 |
| `CC(C)CCN1CCN(C(=O)c2c[nH]nn2)CC1` | -2.42 |
| `CSc1ccc(CN2CCC(CCC(=O)Nc3ccccc3)CC2)cc1` | -1.699 |
| `CN(CCN1CCOC1=O)CC(=O)Nc1cc(F)cc(F)c1` | -34.97 |
| `O=C(c1ccco1)N1CCOCC2(C1)CN(c1ccoc1)C(=O)CO2` (stereo not shown) | -9.665 |
| `O=C(O)C(F)(F)F.O=C(O)C(F)(F)F.c1cnc(N2CCC3(CC2)CC(NCC2CC2)c2ccccc23)nc1` (stereo not shown) | -54.16 |
| `CC(C)Oc1ncccc1CNC(=O)c1cnccn1` | -12.78 |
| `O=S(=O)(N1CCN(CC2CC2)CC1)N1CCCC1c1ccco1` (stereo not shown) | -29.63 |
| `CC(C)(C)CN1CC(COc2ccccc2)Oc2ccncc2S1(=O)=O` (stereo not shown) | -12.26 |
| `CN(C)C(=O)N1CC2(CCOCC2)c2cc(NC(=O)CCO)ccc21` | -69.14 |
| `CSCC(=O)NC(Cc1ccc(C)cc1)c1ccccn1` (stereo not shown) | -45.46 |
| `CCOc1ccc(-n2nc(C)c(CC(C)=O)c2C)cc1C(N)=O` | -11.23 |
| `Cc1nn(C)c(Oc2ccccc2)c1CNC1CCCCNC1=O` (stereo not shown) | -2.145 |
| `CC(C)OCCSCCn1nc2ccccn2c1=O` | -6.236 |
| `c1ccc2oc(N3CCC(c4nncn4C4CC4)CC3)nc2c1` | -72.49 |
| `c1cc2c(cc1C1CCCN1Cc1nnnn1C1CC1)OCCO2` (stereo not shown) | -9.086 |
| `CO[C@@H]1CC[C@@H](NS(=O)(=O)c2cn(C)nc2C)[C@H]1O` | -5.487 |
| `[H][C@@]12CS(=O)(=O)C[C@]1([H])N(Cc1ccc(CCC)o1)CCN2C(=O)CC(C)C` | 23.97 |
| `CNS(=O)(=O)c1cccc(C(C)NCc2nccn2C(C)C)c1` (stereo not shown) | -32.19 |
| `CC(C)CCC(=O)N1CCCC1c1nnc2n1CCCCC2` (stereo not shown) | -15.08 |
| `CC(C)NC(=O)NCc1ccccc1NS(=O)(=O)c1ccccc1` | -22.07 |
| `CN1CCc2[nH]cnc2C12CCN(Cc1ccc(S(C)(=O)=O)cc1)CC2` | -15.1 |
| `FC(F)(F)c1ccc2nc([C@H]3CCN(C4CCOCC4)C3)[nH]c2c1` | 18.41 |
| `CN(Cc1cc[nH]n1)C(=O)C1CC(=O)N(Cc2ccncc2)C1` (stereo not shown) | -16.68 |
| `CCc1nnsc1C(=O)NCc1nnc2n1CCC2` | -19.39 |
| `CC(=O)N1CCCN(S(=O)(=O)c2cc3ccccc3o2)CC1` | -0.1859 |
| `Cc1c(Br)cccc1CNC1(CCO)CCOCC1` | -81.86 |
| `O=C(c1nnn(-c2ccc(F)cc2)n1)N(CCO)Cc1ccccc1` | -30.55 |
| `[H][C@@]12CNC[C@]1([H])CN(C(=O)C1CCOCC1)C2` | 14.48 |
| `Cc1cncc(C(=O)N2CC[C@@]3(C[C@H](NS(C)(=O)=O)CCO3)C2)c1.O=C(O)C(F)(F)F` | -90.12 |
| `COCC1CN(S(=O)(=O)Cc2ccccc2)Cc2c1cnn2C.O=C(O)C(F)(F)F` (stereo not shown) | -52.12 |

The first 7 entries again:

{"structure": "Cc1cnn(CCNCc2csc(-c3ccc(C(N)=O)cc3)n2)c1", "percent effect": 12.99}
{"structure": "O=C(O)C(F)(F)F.[H][C@@]12CCN(C(=O)c3cccn3C)C[C@]1([H])[C@@H](CN(C)C)OC2", "percent effect": 10.92}
{"structure": "[H][C@]12CN(Cc3cccc(F)c3)CC[C@@]1(O)CCN(S(=O)(=O)N(C)C)C2", "percent effect": 5.447}
{"structure": "O=C(Cc1ccc(Br)s1)NCC(=O)Nc1cn[nH]c1", "percent effect": -32.23}
{"structure": "Cn1cc(C(=O)Nc2cccc(Oc3ccncc3)c2)ccc1=O", "percent effect": -36.82}
{"structure": "COc1ccccc1C1(CNc2nnc(C)c(C)c2C#N)CCOCC1", "percent effect": -20.73}
{"structure": "Cc1c(C(=O)N2CCCC(n3cccn3)C2)nnn1-c1ccccc1", "stereo": "stereo not shown", "percent effect": -3.586}